Measured values published in the supplement of paper PMC12873370.
Values joined by “and” are separate entries in the source; they are usually repeats but may differ in a detail not shown here. Identical values can stand only once. The list shows a part of the results. Many values rest on one well or one pass, so single values are uncertain.

Columns and labels:
[1] = test system: MEPP (mouse ovarian epithelium Trp53/Pten KO); experiment: cell viability relative to untreated (fraction); higher = less growth inhibition; details: 5 µM; 3 days
[2] = test system: PREPP (mouse prostate epithelium Trp53/Pten KO); experiment: as above; details: 5 µM; 3 days

With CC(=O)c1cnccn1 the cell viability [1] was 0.912 and the cell viability [2] was 1.08.

In the case of C[N+](C)(C)CC(=O)O, the cell viability [1] is reported as 1.15 and 1.14 and the cell viability [2] is reported as 1.04 and 1.06.

Compound CNc1ncnc2c1ncn2[C@@H]1O[C@H](CO)[C@@H](O)[C@H]1O has a cell viability [1] of 0.971 and a cell viability [2] of 0.751.

COc1c2ccoc2cc2oc(=O)ccc12 gave a cell viability [1] of 1.26 and a cell viability [2] of 0.836.

Clc1ccc(COC(Cn2ccnc2)c2ccc(Cl)cc2Cl)cc1 (stereo unspecified) showed a cell viability [1] of 0.822 and a cell viability [2] of 0.755.

In the case of C[C@]12CCC(=O)C=C1C=C[C@@H]1[C@@H]2CC[C@@]2(C)[C@H]1CC[C@@]21CCC(=O)O1, the cell viability [1] is reported as 0.775 and the cell viability [2] is reported as 0.826.

In the case of C[C@H](CCC(=O)O)[C@H]1CC[C@H]2[C@@H]3CC[C@@H]4C[C@H](O)CC[C@]4(C)[C@H]3C[C@H](O)[C@]12C, the cell viability [1] is reported as 0.863 and 1.09 and the cell viability [2] is reported as 0.77 and 0.933.

C=CCc1cc(OC)c(O[C@@H](C)[C@H](O)c2ccc(O)c(OC)c2)c(OC)c1 gave a cell viability [1] of 0.966 and a cell viability [2] of 0.919.

COc1cc(C2Oc3cc([C@H]4Oc5cc(O)cc(O)c5C(=O)[C@@H]4O)ccc3OC2CO)ccc1O (stereo partly specified) gave a cell viability [1] of 1.07 and a cell viability [2] of 1.07.

O=C(O)c1cc(O)c2c(c1)C(=O)c1cccc(O)c1C2=O showed a cell viability [1] of 0.938 and a cell viability [2] of 0.923.

In the case of Cc1cccc(C)c1NC(=O)C1CCCCN1C (stereo unspecified), the cell viability [1] is reported as 0.958 and the cell viability [2] is reported as 0.921.

CC[C@H]1OC(=O)[C@H](C)[C@@H](O[C@H]2C[C@@](C)(OC)[C@@H](O)[C@H](C)O2)[C@H](C)[C@@H](O[C@@H]2O[C@H](C)C[C@H](N(C)C)[C@H]2O)[C@](C)(O)C[C@@H](C)/C(=N\OCOCCOC)[C@H](C)[C@@H](O)[C@]1(C)O was tested, and the cell viability [1] was 1.16 and the cell viability [2] was 0.875.

C[C@H]1COc2c(N3CCN(C)CC3)c(F)cc3c(=O)c(C(=O)O)cn1c23 was tested, and the cell viability [1] was 1 and the cell viability [2] was 0.939.

NC(=O)[C@@H]1CC[C@@H]2CN1C(=O)N2OS(=O)(=O)O gave a cell viability [1] of 0.719 and a cell viability [2] of 0.905.

Cc1ccc(Sc2ccccc2N2CCNCC2)c(C)c1 showed a cell viability [1] of 1 and a cell viability [2] of 0.73.

OC[C@H]1O[C@H](O[C@]2(CCl)O[C@H](CCl)[C@@H](O)[C@@H]2O)[C@H](O)[C@@H](O)[C@H]1Cl was tested, and the cell viability [1] was 0.994 and the cell viability [2] was 0.924.

With Nc1ccn([C@H]2C[C@H](O)[C@@H](COP(=O)(O)O)O2)c(=O)n1 the cell viability [1] was 0.911 and the cell viability [2] was 0.937.

O=C([O-])[C@H](O)[C@@H](O)[C@H](O)[C@H](O)CO.O=C([O-])[C@H](O)[C@@H](O)[C@H](O)[C@H](O)CO.[Ca+2] was tested, and the cell viability [1] was 1.03 and the cell viability [2] was 1.08.

With O=C(O)/C=C\C=C/C(=O)O the cell viability [1] was 1 and the cell viability [2] was 1.08.

O=C(O)c1ccc(CO)o1 gave a cell viability [1] of 0.782 and a cell viability [2] of 0.834.

Cc1ccc(O)c(O)c1 gave a cell viability [1] of 0.954 and a cell viability [2] of 0.767.

Compound COc1cc(C=O)ccc1OC(C)=O has a cell viability [1] of 0.908 and a cell viability [2] of 1.09.

Nc1ccn([C@@H]2O[C@H](CO)[C@@H](O)[C@H]2O)c(=O)n1 showed a cell viability [1] of 1.06 and a cell viability [2] of 0.951.

Work on C[C@@H]1CC[C@@]2(NC1)O[C@H]1C[C@H]3[C@@H]4CC=C5C[C@@H](O[C@@H]6O[C@H](CO)[C@@H](O[C@@H]7O[C@@H](C)[C@H](O)[C@@H](O)[C@H]7O)[C@H](O)[C@H]6O[C@@H]6O[C@@H](C)[C@H](O)[C@@H](O)[C@H]6O)CC[C@]5(C)[C@H]4CC[C@]3(C)[C@H]1[C@@H]2C yielded a cell viability [1] of 0.408 and a cell viability [2] of 0.228.

CO[C@H]1/C=C/O[C@@]2(C)Oc3c(C)c(O)c4c(c3C2=O)C2=NC3(CCN(CC(C)C)CC3)NC2=C(NC(=O)/C(C)=C\C=C\[C@H](C)[C@H](O)[C@@H](C)[C@@H](O)[C@@H](C)[C@H](OC(C)=O)[C@@H]1C)C4=O gave a cell viability [1] of 0.985 and a cell viability [2] of 0.665.

CC(=O)C1=C(O)C=C2Oc3c(C(C)=O)c(O)c(C)c(O)c3C2(C)C1=O (stereo unspecified) was tested, and the cell viability [1] was 0.806 and the cell viability [2] was 0.999.

For C[C@@H]1CCCCCCCCCCCCC(=O)C1, the cell viability [1] was 1.06 and the cell viability [2] was 0.766.

Work on CCCCCCCCCCCC1=C(O)C(=O)C=C(O)C1=O yielded a cell viability [1] of 0.859 and a cell viability [2] of 0.716.

Work on [Cl][Mn][Cl] yielded a cell viability [1] of 1.04 and a cell viability [2] of 0.913.

CO/N=C1\C[C@]2(C[C@@H]3C[C@@H](C/C=C(\C)C[C@@H](C)/C=C/C=C4\CO[C@@H]5[C@H](O)C(C)=C[C@@H](C(=O)O3)[C@]45O)O2)O[C@H](/C(C)=C/C(C)C)[C@H]1C showed a cell viability [1] of 0.838 and a cell viability [2] of 1.07.

In the case of O=c1c(O)c(-c2ccc(O)cc2O)oc2cc(O)cc(O)c12, the cell viability [1] is reported as 0.993 and the cell viability [2] is reported as 0.848.

Compound COc1c(O)cc2oc3cc(O)c(CC=C(C)C)c(O)c3c(=O)c2c1CC=C(C)C has a cell viability [1] of 1.07 and a cell viability [2] of 0.859.

Work on CCN(CC)c1ccc(/C=N/NC(=O)c2ccc(O)cc2)cc1 yielded a cell viability [1] of 0.857 and a cell viability [2] of 0.8.

In the case of C[C@H]1[C@H](NC(=O)/C(=N\OC(C)(C)C(=O)O)c2csc(N)n2)C(=O)N1S(=O)(=O)O, the cell viability [1] is reported as 0.98 and the cell viability [2] is reported as 0.855.

For O=C(O)CCCCCCCCCCCCC(=O)O, the cell viability [1] was 1.1 and the cell viability [2] was 0.976.

For O=c1c(O[C@@H]2O[C@H](CO)[C@H](O)[C@H](O)[C@H]2O)c(-c2ccc(O)c(O)c2)oc2cc(O)cc(O)c12, the cell viability [1] was 0.865 and the cell viability [2] was 1.28.

In the case of O=C1CCCC(=O)C1C(=O)c1ccc(C(F)(F)F)cc1[N+](=O)[O-], the cell viability [1] is reported as 0.772 and the cell viability [2] is reported as 0.875.

With C/C=C/C#CC#C[C@@H](O)[C@@H](/C=C/CCCO)O[C@@H]1O[C@H](CO)[C@@H](O)[C@H](O)[C@H]1O the cell viability [1] was 1.1 and the cell viability [2] was 1.13.

CCN1CCN(c2cc3c(cc2F)c(=O)c(C(=O)O)cn3C2CC2)CC1 was tested, and the cell viability [1] was 1.14 and the cell viability [2] was 0.954.

COc1cc2c(c(OC)c1OC)-c1c(cc3c(c1OC)OCO3)C[C@H](C)[C@@](C)(O)C2 was tested, and the cell viability [1] was 1.32 and the cell viability [2] was 0.96.

In the case of COc1ccc2ccc(=O)oc2c1CC=C(C)C, the cell viability [1] is reported as 0.982 and the cell viability [2] is reported as 1.19.

O=c1c(-c2ccc(O)cc2)coc2cc(O[C@@H]3O[C@H](CO)[C@@H](O)[C@H](O)[C@H]3O)ccc12 was tested, and the cell viability [1] was 0.896 and the cell viability [2] was 0.853.

c1cn[nH]c1 was tested, and the cell viability [1] was 0.923 and the cell viability [2] was 1.03.
